# From PubChem BioAssay AID250 (DTP/NCI, 2004)
# The list shows only some results of the screen, not a fair sample: it gathers tests that were run many times, whatever their T/C, doses with no T/C, and many T/C values between a quarter and a half above the control. Further doses and runs are listed elsewhere. T/C gives the treated animals as a percentage of the vehicle group. Some entries give survivors of the animals treated and no T/C: the source holds a T/C of zero for them, seemingly a mark for toxic or unscored doses. For some of these results: Counts of survivors are from the toxicity check (mostly the fifth day) where no day follows; animals may have died later. Schedules are NCI's codes, taken here to give the interval after Q, in days (D) or hours (H), and the number of doses after X. For some of these results: For survival time, the PubChem record calls one and a half times the control and up active, and a quarter to a half above the control has no call in these data; cut-offs in other NCI protocols can differ. Some doses were run more than once; their values stand side by side, smallest first. Some schedule codes hold Z or #, which are not explained here. Some T/C values carry the count of animals alive at the toxicity check (mostly the fifth day); where none is given, no animal had died by that day.
# What was measured:
# [1] = tested on: BDF1 mice, L1210 leukemia sc, survival T/C; assay: NCI In Vivo Anticancer Drug Screen. Data for tumor model L1210 Leukemia (subcutaneous) in B6D2F1 (BDF1) mice; conditions: T/C endpoint: median survival time; dose: 625.0 mg/kg/injection; schedule: Q01DX001 (sc); vehicle: saline; higher T/C = longer survival
# How it was run: (§1)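 Antitumor activity is assessed in mice with transplanted tumors by comparing the treated group (T) with the vehicle control group (C).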
# [2] = tested on: BDF1 mice, L1210 leukemia sc; assay: as above; conditions: T/C endpoint: median survival time, higher T/C = longer survival
# How it was run: as §1
smiles,measurement,setting,value
O=P1(N(CCCl)CCCl)NCCCO1 (stereo unspecified),survivor count,[1],0 of 8
same,T/C,"[2]; dose: 8.4 mg/kg/injection, schedule: Q#A X Z (sc), vehicle: saline",135 % of control
same,T/C,"[2]; dose: 12.5 mg/kg/injection, schedule: Q01DX009 (ip), vehicle: saline",147 % of control
same,T/C,"[2]; dose: 14.0 mg/kg/injection, schedule: Q01DX Z (sc), vehicle: saline, evaluated on day 34",131 % of control
same,T/C,"[2]; dose: 14.0 mg/kg/injection, schedule: Q01DX Z (sc), vehicle: saline, evaluated on day 40",130 % of control
same,T/C,"[2]; dose: 14.0 mg/kg/injection, schedule: Q01DX Z (sc), vehicle: saline, run until all animals had died",140 % of control
same,T/C,"[2]; dose: 23.0 mg/kg/injection, schedule: Q01DX Z (ip), vehicle: saline",135 % of control
same,T/C,"[2]; dose: 23.0 mg/kg/injection, schedule: Q01DX Z (oral), vehicle: saline",126 % of control
same,T/C,"[2]; dose: 23.0 mg/kg/injection, schedule: Q01DX Z (sc), vehicle: saline, evaluated on day 34",144 % of control
same,T/C,"[2]; dose: 23.0 mg/kg/injection, schedule: Q01DX Z (sc), vehicle: saline, run until all animals had died",130 % of control
same,T/C,"[2]; dose: 23.0 mg/kg/injection, schedule: Q02DX Z (sc), vehicle: saline",145 % of control
same,T/C,"[2]; dose: 25.0 mg/kg/injection, schedule: Q01DX009 (sc), vehicle: saline",129 and 137 % of control
same,T/C,"[2]; dose: 50.0 mg/kg/injection, schedule: Q01DX001 (sc), vehicle: saline, evaluated on day 7",144 % of control
same,T/C,"[2]; dose: 50.0 mg/kg/injection, schedule: Q01DX001 (sc), vehicle: saline, evaluated on day 40",144 % of control
same,T/C,"[2]; dose: 50.0 mg/kg/injection, schedule: Q07DX003 (sc), vehicle: saline, evaluated on day 7",136 % of control
same,T/C,"[2]; dose: 50.0 mg/kg/injection, schedule: Q07DX003 (sc), vehicle: saline, evaluated on day 40",133 % of control
same,T/C,"[2]; dose: 50.0 mg/kg/injection, schedule: Q07DX004 (sc), vehicle: saline, evaluated on day 7",137 % of control
same,T/C,"[2]; dose: 50.0 mg/kg/injection, schedule: Q07DX004 (sc), vehicle: saline, evaluated on day 40",133 % of control
same,T/C,"[2]; dose: 50.0 mg/kg/injection, schedule: Q08DX002 (sc), vehicle: saline, evaluated on day 7","130, 132, 133, 139 % of control"
same,T/C,"[2]; dose: 50.0 mg/kg/injection, schedule: Q08DX002 (sc), vehicle: saline, evaluated on day 21",130 % of control
same,T/C,"[2]; dose: 50.0 mg/kg/injection, schedule: Q08DX002 (sc), vehicle: saline, evaluated on day 36",133 % of control
same,T/C,"[2]; dose: 50.0 mg/kg/injection, schedule: Q08DX002 (sc), vehicle: saline, evaluated on day 37",133 % of control
same,T/C,"[2]; dose: 50.0 mg/kg/injection, schedule: Q08DX002 (sc), vehicle: saline, evaluated on day 43",144 % of control
same,T/C,"[2]; dose: 65.0 mg/kg/injection, schedule: Q01DX001 (sc), vehicle: other",134 % of control
same,T/C,"[2]; dose: 65.0 mg/kg/injection, schedule: Q01DX001 (sc), vehicle: saline, run until all animals had died",142 % of control
same,T/C,"[2]; dose: 65.0 mg/kg/injection, schedule: Q07DX003 (sc), vehicle: saline, evaluated on day 6",138 % of control
same,T/C,"[2]; dose: 65.0 mg/kg/injection, schedule: Q07DX003 (sc), vehicle: saline, evaluated on day 7",145 % of control
same,T/C,"[2]; dose: 65.0 mg/kg/injection, schedule: Q07DX003 (sc), vehicle: saline, evaluated on day 30",145 % of control
same,T/C,"[2]; dose: 65.0 mg/kg/injection, schedule: Q07DX003 (sc), vehicle: saline, evaluated on day 36",138 % of control
same,T/C,"[2]; dose: 65.0 mg/kg/injection, schedule: Q07DX Z (sc), vehicle: saline",138 % of control
same,T/C,"[2]; dose: 65.0 mg/kg/injection, schedule: Q08DX002 (sc), vehicle: saline, evaluated on day 7",136 and 142 % of control
same,T/C,"[2]; dose: 65.0 mg/kg/injection, schedule: Q08DX002 (sc), vehicle: saline, evaluated on day 32",133 % of control
same,T/C,"[2]; dose: 65.0 mg/kg/injection, schedule: Q08DX002 (sc), vehicle: saline, evaluated on day 36",144 % of control
same,T/C,"[2]; dose: 100.0 mg/kg/injection, schedule: Q01DX001 (sc), vehicle: saline, evaluated on day 7",141 % of control
same,T/C,"[2]; dose: 100.0 mg/kg/injection, schedule: Q01DX001 (sc), vehicle: saline, evaluated on day 32",145 % of control
same,T/C,"[2]; dose: 100.0 mg/kg/injection, schedule: Q01DX001 (sc), vehicle: saline, evaluated on day 34",135 % of control
same,T/C,"[2]; dose: 100.0 mg/kg/injection, schedule: Q01DX009 (ip), vehicle: saline",147 % of control
same,T/C,"[2]; dose: 100.0 mg/kg/injection, schedule: Q01DX009 (sc), vehicle: saline",127 % of control
same,T/C,"[2]; dose: 100.0 mg/kg/injection, schedule: Q08DX002 (sc), vehicle: saline, evaluated on day 7",134 % of control
same,T/C,"[2]; dose: 100.0 mg/kg/injection, schedule: Q08DX002 (sc), vehicle: saline, evaluated on day 34",130 % of control
same,T/C,"[2]; dose: 108.0 mg/kg/injection, schedule: Q01DX Z (oral), vehicle: saline",133 % of control
same,T/C,"[2]; dose: 108.0 mg/kg/injection, schedule: Q01DX Z (sc), vehicle: saline, evaluated on day 36",143 % of control
same,T/C,"[2]; dose: 108.0 mg/kg/injection, schedule: Q01DX Z (sc), vehicle: saline, evaluated on day 60",145 % of control
same,T/C,"[2]; dose: 180.0 mg/kg/injection, schedule: Q01DX001 (sc), vehicle: saline, evaluated on day 7",142 and 145 % of control
same,T/C,"[2]; dose: 180.0 mg/kg/injection, schedule: Q01DX001 (sc), vehicle: saline, evaluated on day 30",145 % of control
same,T/C,"[2]; dose: 180.0 mg/kg/injection, schedule: Q01DX001 (sc), vehicle: saline, evaluated on day 32",138 % of control
same,T/C,"[2]; dose: 180.0 mg/kg/injection, schedule: Q01DX Z (sc), vehicle: saline, evaluated on day 34",133 % of control
same,T/C,"[2]; dose: 300.0 mg/kg/injection, schedule: Q01DX001 (sc), vehicle: saline, evaluated on day 7",142 % of control
same,T/C,"[2]; dose: 300.0 mg/kg/injection, schedule: Q01DX001 (sc), vehicle: saline, evaluated on day 32",138 % of control
same,T/C,"[2]; dose: 300.0 mg/kg/injection, schedule: Q01DX Z (oral), vehicle: saline",133 % of control
same,T/C,"[2]; dose: 300.0 mg/kg/injection, schedule: Q07DX003 (sc), vehicle: saline, evaluated on day 7",135 % of control
same,T/C,"[2]; dose: 300.0 mg/kg/injection, schedule: Q07DX003 (sc), vehicle: saline, evaluated on day 30",126 % of control [6 of 8 alive]
same,T/C,"[2]; dose: 300.0 mg/kg/injection, schedule: Q08DX003 (ip), vehicle: saline",147 % of control
same,T/C,"[2]; dose: 400.0 mg/kg/injection, schedule: Q01DX001 (sc), vehicle: saline, evaluated on day 7",141 % of control
same,T/C,"[2]; dose: 400.0 mg/kg/injection, schedule: Q01DX001 (sc), vehicle: saline, evaluated on day 37",138 % of control
same,T/C,"[2]; dose: 400.0 mg/kg/injection, schedule: Q07DX003 (sc), vehicle: saline, evaluated on day 7",131 % of control
same,T/C,"[2]; dose: 400.0 mg/kg/injection, schedule: Q07DX003 (sc), vehicle: saline, evaluated on day 40",127 % of control
same,T/C,"[2]; dose: 400.0 mg/kg/injection, schedule: Q07DX004 (sc), vehicle: saline",144 % of control
same,T/C,"[2]; dose: 400.0 mg/kg/injection, schedule: Q08DX002 (sc), vehicle: saline, evaluated on day 7","126, 130, 131 % of control"
same,T/C,"[2]; dose: 400.0 mg/kg/injection, schedule: Q08DX002 (sc), vehicle: saline, evaluated on day 34",125 % of control [9 of 10 alive]
same,T/C,"[2]; dose: 400.0 mg/kg/injection, schedule: Q08DX002 (sc), vehicle: saline, evaluated on day 37",127 % of control [7 of 8 alive]
